Data as given in US7211395B2, “Serum albumin binding moieties” (Dyax Corp., priority 2001, dated 2007).
Some entries share one result that the patent states for a list of compounds. Part of at least one peptide drawing is inferred or uncertain, most often the ends.

Sequences of proteins named here, by UniProt entry; tags and fusion partners are left off. Residues count along the entry.
UniProt P02768, 25-609: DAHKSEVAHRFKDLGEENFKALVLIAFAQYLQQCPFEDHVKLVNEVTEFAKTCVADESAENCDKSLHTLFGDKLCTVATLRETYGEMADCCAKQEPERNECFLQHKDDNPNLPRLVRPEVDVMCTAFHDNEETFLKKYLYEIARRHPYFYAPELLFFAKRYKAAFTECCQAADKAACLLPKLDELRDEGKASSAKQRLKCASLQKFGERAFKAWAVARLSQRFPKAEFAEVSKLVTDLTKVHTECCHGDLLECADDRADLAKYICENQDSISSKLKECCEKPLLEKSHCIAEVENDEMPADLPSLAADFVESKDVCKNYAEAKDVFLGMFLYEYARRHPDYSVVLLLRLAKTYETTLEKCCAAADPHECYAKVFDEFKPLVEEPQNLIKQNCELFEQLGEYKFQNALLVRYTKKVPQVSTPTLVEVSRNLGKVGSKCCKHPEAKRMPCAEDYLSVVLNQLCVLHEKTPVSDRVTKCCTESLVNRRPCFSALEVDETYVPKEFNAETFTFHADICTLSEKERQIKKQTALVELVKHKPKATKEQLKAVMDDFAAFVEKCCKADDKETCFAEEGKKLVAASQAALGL

Target: T1, human serum albumin (HSA) (Homo sapiens, UniProt P02768)
T1 construct: purchased ICN
Assay: Fluorescence anisotropy, direct binding of fluorescein-labeled peptide to HSA
Conditions: for greater affinity for HSA than DX-236: from PBS dissociation constants; for increase in KD as the salt concentration was increased to 140 mM: pH 6.2
Protocol: Affinity determinations were made by first labeling polypeptides on the C-terminal end with NHS-fluorescein. Fluorescence anisotropy measurements were performed in 384-well microplates in a volume of 10 μl in binding buffer using a Tecan Polarion fluorescence polarization plate reader. The concentration of fluorescein labeled peptide was held constant (20 nM), and the concentration of HSA was varied. For pH 6.2, 7.1, and 7.4 binding conditions, a 3 mM phosphate, 0.01% TWEEN-20® buffer was used. For pH 9.1 binding conditions, a 3 mM sodium bicarbonate buffer, 0.01% TWEEN-20® nonionic detergent buffer was used. Once NaCi was added to any of these buffers, their pH was adjusted again to achieve the original pH. The binding mixtures were equilibrated for 10 minutes in the microplate at […] prior to performing the measurement. The observed change in anisotropy was fit to the equation below via nonlinear regression to obtain the apparent KD. This equation assumes that the peptide and HSA form a reversible complex with 1:1 stoichiometry.

Substance | greater affinity for HSA than DX-236 | increase in KD as the salt concentration was increased to 140 mM [fold]
Ac-AEGTGDFWFCDRAAWYPQHLCEFLDPEGGGK-NH2 [SEQ ID NO: 123] | at least 50% | 
Ac-AEGTGDFWFCDRIAWYPQHLCAFLDPEGGGK-NH2 [SEQ ID NO: 116] | at least 50% | 
Ac-AEGTGDFWFCDRIAWYPQHLCEFLAPEGGGK-NH2 [SEQ ID NO: 113] | at least 50% | 
Ac-AEGTGDFWFCDRIAWYPQHLCEFLDPEGGGK—NH2 [DX-236] |  | ≤ 10
Ac-AEGTGSVAWCTIFLCLDVAPEGGGK-NH2 (cysteine pairing not given here) [DX-232] |  | ≤ 10
